Data set [1] concerns 3D human liver microtissues (hLiMT). In words: Cytotoxicity (cellular ATP) in 3D human liver microtissues, 5-6 days treatment.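 Further: Hanging-drop spheroids, seven-point dilution series, re-dosed on day 3, CellTiter-Glo 2.0 luminescence, normalized to 0.5 or 1% DMSO vehicle controls on the same plate.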 In kind it is cell-based. Conditions: read-out: IC50 SHORT.
Data set [2] relates to primary human hepatocytes (PHH). The experiment in a line: Cytotoxicity (cellular ATP, CellTiter-Glo) in 2D plated primary human hepatocytes, 48 h treatment.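 Further: 384-well plates, luminescence read-out, normalized to vehicle wells with 1% DMSO.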 The format is cell-based. As to conditions: Hepatocyte, read-out: Geomean IC50. In general terms: Cellular ATP, detected with luciferase, serves as a proxy for viable cell number.
The conditions of data set [3]: human, in vivo; cited from earlier work.
Data set [4] deals with 3D human liver microtissues (hLiMT). In words: Cytotoxicity (cellular ATP, CellTiter-Glo 2.0) in 3D human liver microtissues, 14 day repeat-dose treatment. As to conditions: 336 h.
Setting [5] is: Hepatocyte, read-out: Geomean IC50 [µM].

The IC50 is the concentration that gives 50% inhibition. One may read the Cmax as the peak of the concentration-time curve.

For the compound `O=C1OCCN1/N=C/c1ccc([N+](=O)[O-])o1` [Furazolidone], the IC50 in data set [1] is 64.9 µM; in data set [2] it was 68.3 µM; in data set [4] (read-out: IC50 LONG), 42.9 µM; in data set [4] (setting [5]), about 42.9 µM. Besides, the Cmax in data set [3] is 1.51 µM.
As to `N=C(N)NCCN1CCCCCCC1` [Guanethidine], the IC50 in data set [2] and in data set [4] (setting [5]) was over 10 µM each time.
